# Test results reported in publication PMC7819943, “Rice protein-binding microarrays: a tool to detect cis-acting elements near promoter regions in rice”.
# Amino acid sequences for entries named in this document (tags omitted).
# UniProt Q0JBA9, entry or part of it: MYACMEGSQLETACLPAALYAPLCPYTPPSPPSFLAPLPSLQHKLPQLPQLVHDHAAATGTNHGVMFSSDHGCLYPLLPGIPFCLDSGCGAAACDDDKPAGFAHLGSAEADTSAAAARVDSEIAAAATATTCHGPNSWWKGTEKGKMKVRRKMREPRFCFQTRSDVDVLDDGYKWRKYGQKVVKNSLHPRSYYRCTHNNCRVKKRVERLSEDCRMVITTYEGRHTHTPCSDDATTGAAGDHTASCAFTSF
# This is one part of the list.
# Target: OsWRKY34 (Oryza sativa, UniProt Q0JBA9 1-250)
# Test: protein-binding microarray (RPBM); PBS, 2% BSA, 51.3 ng/ul salmon testes DNA, 50 uM zinc acetate, 200 nM TF, 25 C, 1 h; high values mean tight binding
# Settings: protein: recombinant; tags: N-terminal polyhistidine and DsRed monomer fusion (pET32a); label: CyDye5-dUTP incorporated in the synthesized complementary strand; 3' TTTTT single-stranded linker to array surface; dsDNA, one strand shown
# How it was run: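 An Axon 4000B scanner gave the binding signal as per-feature fluorescence intensity in arbitrary units. This followed washing of a custom Agilent array that had been incubated for 1 h at 25 °C with 200 nM protein in PBS, 2% BSA, salmon testes DNA and 50 µM zinc acetate. The proteins were transcription factors fused at the N-terminus to polyhistidine and DsRed, expressed in E. coli BL21-CodonPlus and purified on Ni–NTA.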
row,Sequence,binding signal
1,TTGTTATTGTTGGTGATGATGCTCATATGCTGTAGAGGGGCGGAGTCACCTAGTGCAG,8240 fluorescence intensity (a.u.)
2,GTGGTGTGTGTTTACATGTAAGATTAGACAGTTGCCAAGCCGGAGTCACCTAGTGCAG,8710 fluorescence intensity (a.u.)
3,CCAGCGTAACGTCCACTCATCGCGAGCCGCTCAATCCAAACGGAGTCACCTAGTGCAG,9480 fluorescence intensity (a.u.)
4,GTCGCTCACTTCTCGTTCAGGTTCAGCAATCGCAATCTCGCGGAGTCACCTAGTGCAG,12100 fluorescence intensity (a.u.)
5,TTAAAAAAAAGTCAACGATGATAAATATTTAGAGAGTGAGCGGAGTCACCTAGTGCAG,13100 fluorescence intensity (a.u.)
6,AAGGTTGTGTTCGTTTCTTTGAGGTTTCCAACCTCCACTACGGAGTCACCTAGTGCAG,9190 fluorescence intensity (a.u.)
7,CCCCAAATTCCAGTGGCACATAGCCGATATCGCAAATAGTCGGAGTCACCTAGTGCAG,9170 fluorescence intensity (a.u.)
8,ACTCTTGCCGACAACGTCTTCTCTTCCAGCTTCAATCCCACGGAGTCACCTAGTGCAG,11300 fluorescence intensity (a.u.)
9,GTACTAACTGGTTTCGTTCAATTTATTTTACATCTTATCACGGAGTCACCTAGTGCAG,9000 fluorescence intensity (a.u.)
10,GCTTATGTGCATGCGCACTATACTTTTGCTGGTTTTATCACGGAGTCACCTAGTGCAG,11500 fluorescence intensity (a.u.)
11,CACTGGTCAACAGGTTGATGACTGTTTGACCGGATTTTGTCGGAGTCACCTAGTGCAG,11100 fluorescence intensity (a.u.)
12,GAGGGAAAAAAATCTCTTGTATTTCACGTGCACATTTGTCCGGAGTCACCTAGTGCAG,8670 fluorescence intensity (a.u.)
13,TATGTCCCTGTGTTGATCCTAATGGTAGCCTTGCTATCTCCGGAGTCACCTAGTGCAG,11700 fluorescence intensity (a.u.)
14,GTAGCCCTCGTCGTCATTCTTATCCTCCTACTTCCGTTACCGGAGTCACCTAGTGCAG,11000 fluorescence intensity (a.u.)
15,GATGATGTGGCTCTATGCATGTCAAGCTTTTGATTCTAGTCGGAGTCACCTAGTGCAG,8070 fluorescence intensity (a.u.)
16,AACCTAAATCCAATGCTACCCTAATCGTGGCCTCCTCGTCCGGAGTCACCTAGTGCAG,8490 fluorescence intensity (a.u.)
17,GCCCATAAACAGATCTAGTGAATTGCATTTTCATAAACATCGGAGTCACCTAGTGCAG,8700 fluorescence intensity (a.u.)
18,AATCGGTTGTTTTTTTCGTCCACACTTAATGCTCCATACACGGAGTCACCTAGTGCAG,8670 fluorescence intensity (a.u.)
19,GGTTCCGATTCCTTCTGGCCATCGATCTTATCTGGATTACCGGAGTCACCTAGTGCAG,9820 fluorescence intensity (a.u.)
20,CATGGGGTTAGGGCTGGTGTGTCCGGCCGCCTTGCGCGCCCGGAGTCACCTAGTGCAG,10800 fluorescence intensity (a.u.)
21,CCAAAGACCAAGAAATAATTATTATCATCTTGTAGTTTGGCGGAGTCACCTAGTGCAG,11300 fluorescence intensity (a.u.)

row,Sequence,binding signal
1,GGTGGGTGTTTTAATGTGACATGATATTTGTGGTTGGGTTCGGAGTCACCTAGTGCAG,21700 fluorescence intensity (a.u.)
2,ACTCATTTCACACTCACACCCCACACAAATTCTCGTATTACGGAGTCACCTAGTGCAG,8400 fluorescence intensity (a.u.)
3,CTGGCCATCACTCCTGACCGTTAGCTCTACCACCCCTCTGCGGAGTCACCTAGTGCAG,8180 fluorescence intensity (a.u.)
4,GCTCTCTTGGCCTAGTGTTACATGTAAACGAATTGATGTACGGAGTCACCTAGTGCAG,8130 fluorescence intensity (a.u.)
5,CTCTCTCCCCTACCTATCTTATCTATCAGCGTCTGTCTCACGGAGTCACCTAGTGCAG,8290 fluorescence intensity (a.u.)
6,AGCAGTTCACTTATTCTCCCTATTTAGGCCTTGTTTAGTCCGGAGTCACCTAGTGCAG,10300 fluorescence intensity (a.u.)
7,TATGCTTTTCATCTCATTTTCCCTATATTCATGTCAAATTCGGAGTCACCTAGTGCAG,8450 fluorescence intensity (a.u.)
8,TCCGGCTGTGTGAGTCGCAAGCGACTTTTTTTCTCTTTTCCGGAGTCACCTAGTGCAG,14300 fluorescence intensity (a.u.)
9,TGCTTGTTATCTTGCTTGGCTGATTGTTTTGTCAAGGAGTCGGAGTCACCTAGTGCAG,9290 fluorescence intensity (a.u.)
10,GCCACCGCCGCCGTCGCCACACTCCACCGCTGGCCCCGCTCGGAGTCACCTAGTGCAG,12900 fluorescence intensity (a.u.)
11,TCTCTCTCCTCAACCAGCTGTCTCGCGGTCGCCGGCGGCGCGGAGTCACCTAGTGCAG,9230 fluorescence intensity (a.u.)
12,TCTCTCTACCCTTCGTCAACTCCTTCAAATCCAGCCTACACGGAGTCACCTAGTGCAG,8590 fluorescence intensity (a.u.)
13,TGTCCACATTCCCTGCCCCTGTACTCATTTTTAATTAATTCGGAGTCACCTAGTGCAG,8240 fluorescence intensity (a.u.)
14,CACTGAACTCCACACAGTTGCACAGCCCAATAACCCATTCCGGAGTCACCTAGTGCAG,8720 fluorescence intensity (a.u.)
15,CCGAAACTCCTTTCCTTCTTCCTTTTTGGTCCAATCCTTTCGGAGTCACCTAGTGCAG,9270 fluorescence intensity (a.u.)
16,GTTAATCAGACAAACCTCTCCTTTCATCCTTTGGATACTGCGGAGTCACCTAGTGCAG,8330 fluorescence intensity (a.u.)
17,CACACGATGATGGTTGACTGCTGGGCCCAGTTGTTGACTTCGGAGTCACCTAGTGCAG,8520 fluorescence intensity (a.u.)
18,TCCATTTATTACCGTCATCTTATATAATCTTCAATTAGACCGGAGTCACCTAGTGCAG,8650 fluorescence intensity (a.u.)
19,TCATTTCCGACCGTTTTCATACCTACCTGTAAGCTTAGCCCGGAGTCACCTAGTGCAG,13700 fluorescence intensity (a.u.)
20,GTTCCCTTTGCAGCTAGGACGATACGGCTACACTTTTTTCCGGAGTCACCTAGTGCAG,8170 fluorescence intensity (a.u.)
21,CTGCTGCATCTGCACTGCATGGCCATGCCCACACACTTGGCGGAGTCACCTAGTGCAG,8050 fluorescence intensity (a.u.)

# An excerpt of these results, tab-delimited.
row	Sequence	binding signal
6	AGCAGTTCACTTATTCTCCCTATTTAGGCCTTGTTTAGTCCGGAGTCACCTAGTGCAG	10300 fluorescence intensity (a.u.)
7	TATGCTTTTCATCTCATTTTCCCTATATTCATGTCAAATTCGGAGTCACCTAGTGCAG	8450 fluorescence intensity (a.u.)
